Assay: Coloration of hair switches with solubilized vat dyes (general procedure), natural blond hair
Design: species or system human
Text: The coloring method described in the following examples, which method uses solubilized vat dyes, comprises the steps of applying leuco vat dye sulfuric esters, hydrolyzing the leuco vat dye sulfuric esters to the leuco form, and actively oxidizing the leuco form to the respective insoluble pigment form of the vat dyes.
Penetration occurs under mild alkaline conditions at pH=9 in the presence of ammonia or other penetration enhancers such as urea. At this point in time it is important to keep the sulfuric ester structure intact to avoid any early oxidation of the solubilized vat dye as this will distract the penetration process and will lead to incomplete use of the applied dye amount which will result in an unsatisfactory color result. In order to prevent the solubilized vat dyes to start the oxidation at that point in time, sodium sulfite as reducing agent may be added to the coloring mixture. Addition of sodium meta bisulfite as described in U.S. Pat. No. 5,364,415 (Lewis et. al.), to lower the alkaline pH given by the addition of ammonia or urea down to pH=6 is not beneficial as it will hinder the solubilized vat dye to penetrate, and will decrease the swelling of the keratin fiber which needs mild alkaline conditions.
The alkaline dyeing solution is then treated with, for example, acetic acid, ascorbic acid, boric acid or citric acid to adjust the pH to mildly acidic, for example pH 3.0-3.5. This pH change will trigger hydrolysis of the sulfuric ester to yield the free vat acid (leuco form). This process typically will require no more than 10 min, after which time the solubilized vat dye esters are completely hydrolyzed. At that point in time the leuco form has reached the maximum sensitivity to oxidizers.
The hair is briefly rinsed with water to remove any excess remaining dye material from the surface of the hair. After that, any oxidizing procedure can be applied. This includes very gentle conditions using hydrogen peroxide solutions from 1-12% by volume. Common in the hair color industry are the following typical concentrations: 1.9, 6, 9 or 12% by volume. Hydrogen peroxide can be applied also together with bleaching agents such as sodium/potassium/ammonium persulfate or percarbonates. The oxidation to convert the leuco form to the vat dye pigments is typically completed within 20 min. Simultaneously lifting of the hair (oxidizers keep also oxidizing natural melanin in the hair) will be completed within the same time frame. […] A significant advantage is that any formulations can totally skip the use of organic solvents and alcohols such as ethanol or iso-propyl-alcohol.
2 g urea (penetration enhancer), 200 mg sodium sulfite (reducing agent) and 120 mg of the respective solubilized vat dye (color component) are dissolved in 15 ml water. This simple mixture is already sufficient to obtain the desired colorations on hair. In principal, all additional components which are a typical ingredients of an oxidative hair coloring system in addition to the above-mentioned components can be applied as well with no exception and without negative impact on the coloring result. This includes the following ingredient groups: coloring agents (solubilized vat dyes), penetration enhancers/alkalizers (e.g. ammonia, urea), reducing agents/radical scavengers (e.g. sodium sulfite etc.), chelating agents (e.g. EDTA, EDDS, editronic acid) etc.), fragrances, care components (e.g. hydrolyzed keratin, dimethicone, polyquaternium types etc.) texture ingredients (e.g. carbomer, cocoamide, hydroxyethyl cellulose etc.), medium reagents (e.g. cetearyl alcohol, lanolin alcohol, glycerin stearate etc.) and surfactants (e.g. laurylether sulfate, lauryl sulfo acetate etc.).
This aqueous solution is heated gently to 40° C. and 1-2 hair switches are placed in the coloring bath for 25-30 min. […]

[1] = Hydrogen peroxide 12% plus Blondor powder, ratio 1:1

| Compound | L a b value: L (Hydrogen peroxide 9%, pH = 9) | L a b value: L [1] |
| --- | --- | --- |
| COc1cc2c3ccccc3c(OS(=O)(=O)[O-])c3ccc4c5ccc6c(OS(=O)(=O)[O-])c7ccccc7c7cc(OC)c(c1c4c32)c5c67.[Na+].[Na+] [solubilized vat green 1] | L = 31.82 | L = 22.36 |
| O=S(=O)([O-])Oc1c2ccccc2c2ccc3c4ccc5c(OS(=O)(=O)[O-])c6c(Cl)c(Cl)ccc6c6ccc(c7ccc1c2c37)c4c56.[Na+].[Na+] [solubilized vat violet 1] | L = 11.14 | L = 10.36 |
| O=S(=O)([O-])Oc1c2ccccc2c2ccc3c(OS(=O)(=O)[O-])c4ccccc4c4ccc1c2c34.[Na+].[Na+] [solubilized vat yellow 4] | L = 57.23 | L = 55.69 |

Reference: patent US12337053B2, “Method and composition for coloring a keratinous substrate using solubilized vat dyes” (Wella Germany GmbH, priority 2020, dated 2025)
